{"source": "patent US12162865B2", "about": "“Methods of treating cancer” (Epizyme, Inc., priority 2012, dated 2024)", "key": {"KYM-1 cells": {"system": "KYM-1 cells", "test": "cells", "details": "336 h, read-out: Proliferation IC50 on Day 14"}, "Pfeiffer cells": {"system": "Pfeiffer cells", "test": "cells", "details": "Homo sapiens, 264 h, read-out: Proliferation IC50"}, "H3K27Me3 in RD cells": {"system": "H3K27Me3 in RD cells", "test": "cells", "details": "Homo sapiens, 96 h, read-out: Methylation IC50"}, "G401 cells": {"system": "G401 cells", "test": "cells", "details": "Homo sapiens"}, "[1]": {"system": "H3K27Me3 in Karpas-422 cells", "test": "cells", "details": "Homo sapiens, KARPAS-422, 96 h, read-out: Methylation IC50"}, "DOHH-2 cells": {"system": "DOHH-2 cells", "test": "cells", "details": "Homo sapiens, DOHH-2, 264 h, read-out: Proliferation IC50"}, "[2]": {"system": "H3K27Me3 in SU-DHL-6 cells", "test": "cells", "details": "Homo sapiens, SU-DHL-6, 96 h, read-out: Methylation IC50"}, "RD cells": {"system": "RD cells", "test": "cells", "details": "Homo sapiens"}, "Toledo cells": {"system": "Toledo cells", "test": "cells", "details": "Homo sapiens, 264 h, read-out: Proliferation IC50"}, "[3]": {"system": "H3K27Me3 in SJCRH30 cells", "test": "cells", "details": "96 h, read-out: Methylation IC50"}, "Farage cells": {"system": "Farage cells", "test": "cells", "details": "Homo sapiens, 264 h, read-out: Proliferation IC50"}, "H3K27Me3 in RL cells": {"system": "H3K27Me3 in RL cells", "test": "cells", "details": "Homo sapiens, 96 h, read-out: Methylation IC50"}, "293 cells": {"system": "293 cells", "test": "cells", "details": "Homo sapiens, HEK293, 336 h, read-out: Proliferation IC50 on Day 14"}, "SJCRH30 cells [4]": {"system": "SJCRH30 cells", "test": "cells"}, "H3K27Me3 in KYM-1 cells": {"system": "H3K27Me3 in KYM-1 cells", "test": "cells", "details": "96 h, read-out: Methylation IC50"}, "A204 cells": {"system": "A204 cells", "test": "cells", "details": "Homo sapiens"}, "SJCRH30 cells [5]": {"system": "SJCRH30 cells", "details": "read-out: Proliferation IC50 on Day 14; SJCRH30, SMARCB1 wild-type; Table 6; two single experiments, mean not possible"}, "H3K27Me3 in 293 cells": {"system": "H3K27Me3 in 293 cells", "test": "cells", "details": "Homo sapiens, HEK293, 96 h, read-out: Methylation IC50"}, "SU-DHL-6 cells": {"system": "SU-DHL-6 cells", "test": "cells", "details": "Homo sapiens, SU-DHL-6, 264 h, read-out: Proliferation IC50"}, "OCI-LY19 cells": {"system": "OCI-LY19 cells", "test": "cells", "details": "Homo sapiens, OCI-LY19, 264 h, read-out: Proliferation IC50"}, "Karpas-422 cells": {"system": "Karpas-422 cells", "test": "cells", "details": "Homo sapiens, KARPAS-422, 264 h, read-out: Proliferation IC50"}, "G402 cells": {"system": "G402 cells", "test": "cells", "details": "Homo sapiens, G-402, 336 h, read-out: Proliferation IC50 on Day 14"}, "H3K27Me3 in G402 cells": {"system": "H3K27Me3 in G402 cells", "test": "cells", "details": "Homo sapiens, G-402, 96 h, read-out: Methylation IC50"}, "H3K27Me3 in A204 cells": {"system": "H3K27Me3 in A204 cells", "test": "cells", "details": "Homo sapiens, A204, 96 h, read-out: Methylation IC50"}, "H3K27Me3 in G401 cells": {"system": "H3K27Me3 in G401 cells", "test": "cells", "details": "Homo sapiens, G-401, 96 h, read-out: Methylation IC50"}}, "note": "Like-named read-outs stand apart in the source and are kept apart here."}
{"smiles": "CCN(c1cc(-c2ccc(CN3CCOCC3)cc2)cc(C(=O)NCc2c(C)cc(C)[nH]c2=O)c1C)C1CCOCC1", "note": "[Compound A, N-((4,6-dimethyl-2-oxo-1,2-dihydropyridin-3-yl)methyl)-5-(ethyl (tetrahydro-2H-pyran-4-yl)amino)-4-methyl-4′-(morpholinomethyl)-[1,1′-biphenyl]-3-carboxamide]", "values": [{"measurement": "IC50", "setting": "KYM-1 cells", "value": 0.032, "unit": "µM"}, {"measurement": "IC50", "setting": "Pfeiffer cells", "value": 0.00049, "unit": "µM"}, {"measurement": "IC50", "setting": "H3K27Me3 in RD cells", "value": 0.0056, "unit": "µM"}, {"measurement": "IC50", "setting": "G401 cells; G-401, 168 h, read-out: Proliferation IC50, day 7", "value": 0.087, "unit": "µM"}, {"measurement": "IC50", "setting": "G401 cells; G-401, 336 h, read-out: Proliferation IC50, day 14", "value": 0.042, "unit": "µM"}, {"measurement": "IC50", "setting": "G401 cells; G-401, 336 h, read-out: Proliferation IC50 on Day 14", "value": 0.135, "unit": "µM"}, {"measurement": "IC50", "setting": "[1]", "value": 0.09, "unit": "µM"}, {"measurement": "IC50", "setting": "DOHH-2 cells", "value": 1.7, "unit": "µM"}, {"measurement": "IC50", "setting": "[2]", "value": 0.02, "unit": "µM"}, {"measurement": "IC50", "setting": "RD cells; 168 h, read-out: Proliferation IC50, day 7", "value": 9.2, "unit": "µM"}, {"measurement": "IC50", "setting": "RD cells; 336 h, read-out: Proliferation IC50, day 14", "value": 5.2, "unit": "µM"}, {"measurement": "IC50", "setting": "Toledo cells", "value": 7.6, "unit": "µM"}, {"measurement": "IC50", "setting": "[3]", "value": 0.0049, "unit": "µM"}, {"measurement": "IC50", "setting": "Farage cells", "value": 0.099, "unit": "µM"}, {"measurement": "IC50", "setting": "H3K27Me3 in RL cells", "value": 0.022, "unit": "µM"}, {"measurement": "IC50", "setting": "293 cells", "value": "> 10", "unit": "µM"}, {"measurement": "IC50", "setting": "SJCRH30 cells [4]; 168 h, read-out: Proliferation IC50, day 7, SJCRH30, SMARCB1 Wild Type, Table 3", "value": 6.1, "unit": "µM"}, {"measurement": "IC50", "setting": "SJCRH30 cells [4]; 336 h, read-out: Proliferation IC50, day 14, SJCRH30, SMARCB1 Wild Type, Table 3", "value": 8.8, "unit": "µM"}, {"measurement": "IC50", "setting": "SJCRH30 cells [4]; 336 h, read-out: Proliferation IC50 on Day 14, SJCRH30, SMARCB1 wild-type, Table 6, two single experiments, mean not possible", "value": 5.1, "unit": "µM"}, {"measurement": "IC50", "setting": "H3K27Me3 in KYM-1 cells", "value": 0.0043, "unit": "µM"}, {"measurement": "IC50", "setting": "A204 cells; A204, 168 h, read-out: Proliferation IC50, day 7", "value": 3.2, "unit": "µM"}, {"measurement": "IC50", "setting": "A204 cells; A204, 336 h, read-out: Proliferation IC50, day 14", "value": 0.14, "unit": "µM"}, {"measurement": "IC50", "setting": "A204 cells; A204, 336 h, read-out: Proliferation IC50 on Day 14", "value": 0.59, "unit": "µM"}, {"measurement": "IC50", "setting": "SJCRH30 cells [5]", "value": "> 10", "unit": "µM"}, {"measurement": "IC50", "setting": "H3K27Me3 in 293 cells", "value": 0.0024, "unit": "µM"}, {"measurement": "IC50", "setting": "SU-DHL-6 cells", "value": 0.0047, "unit": "µM"}, {"measurement": "IC50", "setting": "OCI-LY19 cells", "value": 6.2, "unit": "µM"}, {"measurement": "IC50", "setting": "Karpas-422 cells", "value": 0.0018, "unit": "µM"}, {"measurement": "IC50", "setting": "G402 cells", "value": 0.144, "unit": "µM"}, {"measurement": "IC50", "setting": "H3K27Me3 in G402 cells", "value": 0.0017, "unit": "µM"}, {"measurement": "IC50", "setting": "H3K27Me3 in A204 cells", "value": 0.0014, "unit": "µM"}, {"measurement": "IC50", "setting": "H3K27Me3 in G401 cells", "value": 0.0027, "unit": "µM"}]}
